In PMC11963299:
Results are given in words; binding and its absence hold for the method and conditions named. Binding seen in cells or lysates may run through a third protein. A yes stands for co-enrichment or nearness to the bait. Other partners may have been found.

Chains of the proteins cited; added tags and fusions are not shown.
UniProt O54791: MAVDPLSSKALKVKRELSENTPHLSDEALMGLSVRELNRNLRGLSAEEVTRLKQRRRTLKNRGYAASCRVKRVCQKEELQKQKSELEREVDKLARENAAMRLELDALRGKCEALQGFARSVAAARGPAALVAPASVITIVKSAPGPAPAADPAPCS
UniProt P97302: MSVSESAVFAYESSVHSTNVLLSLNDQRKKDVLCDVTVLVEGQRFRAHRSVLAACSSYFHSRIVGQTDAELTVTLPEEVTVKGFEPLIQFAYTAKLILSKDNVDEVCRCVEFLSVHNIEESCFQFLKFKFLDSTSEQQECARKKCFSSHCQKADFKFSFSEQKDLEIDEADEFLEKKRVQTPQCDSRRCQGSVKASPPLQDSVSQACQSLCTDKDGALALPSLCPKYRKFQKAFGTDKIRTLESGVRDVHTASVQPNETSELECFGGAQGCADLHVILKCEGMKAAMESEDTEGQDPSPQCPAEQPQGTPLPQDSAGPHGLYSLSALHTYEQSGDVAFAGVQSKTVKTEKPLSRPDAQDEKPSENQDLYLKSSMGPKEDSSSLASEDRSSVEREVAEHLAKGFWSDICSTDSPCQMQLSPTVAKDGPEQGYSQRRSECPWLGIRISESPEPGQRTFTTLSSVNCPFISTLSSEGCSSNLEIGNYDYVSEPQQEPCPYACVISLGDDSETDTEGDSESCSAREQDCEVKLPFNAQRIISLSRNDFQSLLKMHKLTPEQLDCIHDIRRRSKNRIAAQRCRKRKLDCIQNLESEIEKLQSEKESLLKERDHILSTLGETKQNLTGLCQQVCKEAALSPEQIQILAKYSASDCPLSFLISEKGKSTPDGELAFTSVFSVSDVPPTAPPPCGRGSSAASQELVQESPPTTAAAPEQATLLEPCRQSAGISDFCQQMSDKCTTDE

Target: v-maf musculoaponeurotic fibrosarcoma oncogene homolog F (MAFF) (mouse (endogenous in AML12 cells / hepatocytes)) (UniProt O54791)
Assay: affinity purification with mass spectrometry; IP with MAFF antibody or IgG (negative control) from hepatocytes (AML12 cells) after H/R; electrophoresis, Coomassie staining, mass spectrometry of IP-MAFF and IP-IgG

BTB and CNC homology 1 (BACH1) (from UniProt P97302 1-739)
binding: binds
